In assay [1] the target is T1, NADH-ubiquinone oxidoreductase (complex I) (Rattus norvegicus, UniProt P03889+Q641Y2).
For assay [2], the target named is T1, NADH-ubiquinone oxidoreductase (complex I). The source holds these as a separate data set.
For assay [3] the target is unchanged. Put plainly: cell-based. The note with it: for IC50: IC50 Complex I.
Assay [4] has the same target. The experiment in a line: cell-based. The note with it: for IC50: IC50 Complex I. This is another data set of the same source.
The mark [5] stands for this setting: read-out: inhibition of respiration at flux point.

Amino acid sequences for entries named in this document (tags omitted). A change or cut given only in a name is not applied to a line headed by its entry. Residues count along the entry.
UniProt P03889: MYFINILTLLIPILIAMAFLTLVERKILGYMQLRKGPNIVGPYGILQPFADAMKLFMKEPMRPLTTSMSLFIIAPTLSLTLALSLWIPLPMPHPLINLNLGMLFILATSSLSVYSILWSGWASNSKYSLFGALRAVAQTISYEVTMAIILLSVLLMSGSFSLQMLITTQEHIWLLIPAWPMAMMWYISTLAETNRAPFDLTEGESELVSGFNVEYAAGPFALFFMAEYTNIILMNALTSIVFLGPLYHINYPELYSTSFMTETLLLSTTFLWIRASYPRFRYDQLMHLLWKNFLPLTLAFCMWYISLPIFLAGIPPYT
UniProt Q641Y2, 34-463: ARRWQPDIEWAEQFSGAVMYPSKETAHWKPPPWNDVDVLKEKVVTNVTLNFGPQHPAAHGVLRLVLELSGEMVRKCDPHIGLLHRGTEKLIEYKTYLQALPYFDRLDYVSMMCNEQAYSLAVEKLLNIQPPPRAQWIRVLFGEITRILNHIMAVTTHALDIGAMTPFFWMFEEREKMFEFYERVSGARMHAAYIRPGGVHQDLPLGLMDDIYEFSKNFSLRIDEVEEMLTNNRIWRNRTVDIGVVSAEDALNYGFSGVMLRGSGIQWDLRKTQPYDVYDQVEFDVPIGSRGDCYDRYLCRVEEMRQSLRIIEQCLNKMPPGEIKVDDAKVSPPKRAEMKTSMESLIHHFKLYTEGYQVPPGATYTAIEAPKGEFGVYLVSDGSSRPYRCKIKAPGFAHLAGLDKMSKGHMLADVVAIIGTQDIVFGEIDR

Several values for one entry are separate records, joined by “and”; a condition that tells them apart may be missing. Equal entries are not always repeated. Where two headings read alike, the source gives them in different places.

As usually defined, the IC50 is the concentration at which inhibition is half-maximal. As to `C=C(C)[C@H]1Cc2c(ccc3c2O[C@@H]2COc4cc(OC)c(OC)cc4[C@@H]2C3=O)O1` [rotenone], the results for the “decrease of IC50 with age” value in assay [1] and in assay [2] were 21% and 67%, respectively. The “percent of initial respiration remaining at flux point” value in assay [1] is 39% and 40%. The “decrease of IC50 with exogenous vs endogenous substrates” value in assay [2] stood at 9%. In addition, the “increase of IC50 with exogenous vs endogenous substrates” value in assay [2] was 114%. Besides, the concentration for half-maximal inhibition (IC50) is 1.4 µM in assay [3] (MA), 1.1 µM in assay [3] (Old), 3 µM in assay [4] (MA) and 1 µM in assay [4] (Old). Moreover, the figures for the inhibition at 3 µM in assay [3] (setting [5]) and in assay [4] (setting [5]) were 61% and 39%, respectively.

The values above are taken from paper PMC2812684 (Biochimica et biophysica acta, 2009).
